{
  "source": "patent US10765648B2",
  "about": "“iNKT cell modulators and methods of using the same” (LUDWIG INSTITUTE FOR CANCER RESEARCH, priority 2011, dated 2020)",
  "biological_target": "T1, human iNKT cell TCRs for hCD1d loaded with lipid (Homo sapiens, UniProt P15813)",
  "T1 construct": "made in house",
  "T1 sequence (P15813 20-301 limits assumed)": "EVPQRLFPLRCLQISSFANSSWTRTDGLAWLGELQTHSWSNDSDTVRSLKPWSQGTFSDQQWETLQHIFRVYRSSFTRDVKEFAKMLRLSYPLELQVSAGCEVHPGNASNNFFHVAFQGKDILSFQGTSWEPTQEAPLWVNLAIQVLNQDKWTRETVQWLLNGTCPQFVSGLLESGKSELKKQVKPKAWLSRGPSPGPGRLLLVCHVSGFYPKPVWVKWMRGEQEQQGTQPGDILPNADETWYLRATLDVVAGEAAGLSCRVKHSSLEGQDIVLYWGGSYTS",
  "experiment": "SPR of soluble human iNKT TCR binding to hCD1d-lipid complexes",
  "source_text": "The binding kinetics of these ThrCer and α-GalCer analogue compounds were examined. To this end, bacterially-expressed hCD1d and β-2-microglobulin (β 2 M) molecules were refolded with the thioamide, and carbamate analogues of both α-GalCer and ThrCer by oxidative refolding chromatography, and then biotinylated. The urea analogues of α-GalCer and ThrCer could not be refolded, and therefore, no surface plasmon resonance (SPR) data are available for these molecules. Soluble human iNKT TCR was prepared. SPR experiments were used to measure the affinity and kinetics of human iNKT cell TCRs for hCD1d loaded with α-GalCer, ThrCer, and their thioamide and carbamate analogues (FIGS. 5A-5B). To this end, increasing concentrations of TCR were injected for 5 seconds over the indicated complex immobilized on the BIAcore chip until the specific binding reached its plateau. Kd and Bmax were calculated by fitting the data using non-linear regression binding kinetics model (FIGS. 5A-5B). Kinetic measurements for the koff were calculated using BIAevaluation software kit; kon values were calculated from the experimental koff and Kd.\nProtein expression and purification: hCD1d and β2m were refolded with α-GalCer, IMM47, IMM60, IMM70 or IMM80 by oxidative chromatography. In summary, CD1d and β2m were overexpressed in E. coli BL21 using a prokaryotic expression system (Novagen, UK). The individual proteins were purified from inclusion bodies, then refolded with the corresponding lipid. The complex was biotinylated and purified. […]\nSurface plasmon resonance: SPR experiments were performed with a model 3000 BIAcore to measure the affinity and kinetics of iNKT TCR binding to hCD1d-ligand complexes. […] The Kd values were calculated by fitting the data from the equilibrium binding experiment to a non-linear regression saturation binding model (GraphPad Prism 5.0), whereas the koff data were estimated from the kinetics experiments by fitting the data to the 1:1 Langmuir binding model using the BlAevaal 3.1 software (BIAcore).",
  "note": "For at least one compound, name, drawing or mass did not settle the structure.",
  "data": [
    {"smiles": "CCCCCCCCCCCCCCCCCCCCCCCCCC(=O)N[C@@H](COC[C@H](O)[C@@H](O)CO)[C@H](O)[C@H](O)CCCCCCCCCCCCCC", "note": "[ThrCer 2, threitolceramide]", "values": [
      {"measurement": "calculated kon", "setting": "calculated from experimental koff and Kd", "result": "2.58 ± 0.10 × 10^3 M^-1 s^-1"},
      {"measurement": "experimental koff", "setting": "lipid on CD1d", "result": "1.18 ± 0.034", "unit": "s⁻¹"},
      {"measurement": "Kd", "setting": "lipid on CD1d, equilibrium binding, read-out: experimental Kd", "result": "4.57 ± 0.12", "unit": "µM"}
    ]}
  ]
}
